# From patent US20080138811A1, “Tissue-Based Assay System for Alzheimer-Specific Degeneration and Pathology” (priority 2005, published 2008)
# At least one structure is not confirmed: it was looked up by name or label, or the drawing left a doubt.
# Assays:
# [1] = system: human tau P301L phosphorylation in hippocampal slice cultures; test: Tau phosphorylation in tauP301L-transduced hippocampal slice cultures, Sandwich ELISA; assay type: cell-based, rat; settings: for Tau phosphorylation at Ser202: FIG. 6
# [2] = system: tau Ser396 phosphorylation; settings: in vitro; cited from earlier work
# [3] = applied from day 2 post-infection, determined day 6, data not shown
smiles,measurement,setting,value
"[Li] [Lithium, lithium]",Tau phosphorylation at Ser202,"[1]; 10 mM, added 2 days after transduction, harvested 6 days post infection",not
same,Tau phosphorylation of S396,[1]; [3],effective
same,Tau phosphorylation of T231,[1]; [3],diminished
same,Tau phosphorylation at Ser202,"[1]; inhibitor applied from day 2 post-infection, determined 4 days later (day 6 post infection), normalised to total human tau",did not affect
same,Phosphorylation of Ser396,[2],inhibited
